Laboratory results reported in publication PMC8184920.
No constants are given. Whether binding was seen depends on the method and setting. Binding seen in cells or lysates may run through a third protein. A yes stands for co-enrichment or nearness to the bait. Other partners may have been found.

Amino acid sequences for entries named in this document (tags omitted).
UniProt Q9CQ22: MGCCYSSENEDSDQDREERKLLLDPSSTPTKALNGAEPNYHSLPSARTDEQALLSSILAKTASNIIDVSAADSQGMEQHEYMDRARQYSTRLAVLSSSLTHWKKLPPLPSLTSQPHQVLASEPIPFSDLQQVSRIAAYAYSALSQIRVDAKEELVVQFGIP
UniProt P97434: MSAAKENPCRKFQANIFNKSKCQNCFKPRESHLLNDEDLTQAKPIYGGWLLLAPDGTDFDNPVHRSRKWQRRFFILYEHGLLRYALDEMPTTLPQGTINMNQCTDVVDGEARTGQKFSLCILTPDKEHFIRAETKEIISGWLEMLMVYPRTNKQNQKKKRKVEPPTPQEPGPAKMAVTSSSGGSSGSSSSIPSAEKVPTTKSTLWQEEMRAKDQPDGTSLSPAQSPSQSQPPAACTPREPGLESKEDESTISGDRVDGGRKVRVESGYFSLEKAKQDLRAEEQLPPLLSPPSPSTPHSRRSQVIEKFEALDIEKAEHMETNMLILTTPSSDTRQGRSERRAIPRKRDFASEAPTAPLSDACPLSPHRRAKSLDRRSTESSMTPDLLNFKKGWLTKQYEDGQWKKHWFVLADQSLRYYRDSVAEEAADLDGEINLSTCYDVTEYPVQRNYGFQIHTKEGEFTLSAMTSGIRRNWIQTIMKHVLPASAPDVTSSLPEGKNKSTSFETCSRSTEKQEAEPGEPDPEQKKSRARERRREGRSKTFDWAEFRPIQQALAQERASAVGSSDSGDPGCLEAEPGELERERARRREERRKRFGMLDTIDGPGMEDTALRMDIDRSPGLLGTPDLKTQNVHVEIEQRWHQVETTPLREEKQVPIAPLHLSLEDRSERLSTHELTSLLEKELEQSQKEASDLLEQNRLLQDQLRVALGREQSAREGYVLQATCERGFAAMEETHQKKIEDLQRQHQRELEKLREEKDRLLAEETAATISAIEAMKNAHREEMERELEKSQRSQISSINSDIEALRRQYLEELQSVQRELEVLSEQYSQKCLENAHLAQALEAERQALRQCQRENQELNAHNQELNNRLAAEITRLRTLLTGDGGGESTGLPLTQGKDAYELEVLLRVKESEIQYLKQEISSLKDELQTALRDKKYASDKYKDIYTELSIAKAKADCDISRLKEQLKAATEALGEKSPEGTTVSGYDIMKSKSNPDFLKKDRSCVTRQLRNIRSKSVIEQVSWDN

Target: Lamtor1 (endogenous, mouse BMDCs) (mouse (endogenous in BMDCs)) (UniProt Q9CQ22)
Assay: affinity purification with mass spectrometry; immunoprecipitation with anti-Lamtor1 antibody from lysates of WT and Lamtor1-/- BMDCs (50 mM Tris-HCl pH 7.4, 150 mM NaCl, 1 mM EDTA, 5% glycerol, 2% n-octyl-b-D-glucopyranoside, 1% NP-40), LC-MS/MS

## MPRIP (endogenous, mouse BMDCs) (from UniProt P97434 1-1024)
  binding: binds
